Assay results published in the supplement of paper PMC10849652.
The other results are listed elsewhere or left out.

Protein sequences, listed by entry. Tags and fused reporters are not part of them. Lines headed by an entry give the natural chain unless they say otherwise; changes in a name come on top.
UniProt Q96MW1: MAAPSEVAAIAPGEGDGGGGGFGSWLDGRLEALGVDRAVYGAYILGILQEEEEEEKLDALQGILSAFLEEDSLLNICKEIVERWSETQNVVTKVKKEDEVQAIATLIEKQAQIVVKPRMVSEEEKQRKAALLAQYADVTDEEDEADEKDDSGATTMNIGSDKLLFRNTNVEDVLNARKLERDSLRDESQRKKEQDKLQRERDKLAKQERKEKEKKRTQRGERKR
UniProt P55212: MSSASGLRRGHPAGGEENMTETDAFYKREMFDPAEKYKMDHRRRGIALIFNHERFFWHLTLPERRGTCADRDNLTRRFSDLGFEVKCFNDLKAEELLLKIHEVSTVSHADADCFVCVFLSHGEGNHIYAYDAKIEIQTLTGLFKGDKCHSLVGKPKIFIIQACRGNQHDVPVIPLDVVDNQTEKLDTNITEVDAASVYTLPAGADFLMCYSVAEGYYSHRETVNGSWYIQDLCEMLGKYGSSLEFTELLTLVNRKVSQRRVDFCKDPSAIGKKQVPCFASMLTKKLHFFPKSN
UniProt P49368: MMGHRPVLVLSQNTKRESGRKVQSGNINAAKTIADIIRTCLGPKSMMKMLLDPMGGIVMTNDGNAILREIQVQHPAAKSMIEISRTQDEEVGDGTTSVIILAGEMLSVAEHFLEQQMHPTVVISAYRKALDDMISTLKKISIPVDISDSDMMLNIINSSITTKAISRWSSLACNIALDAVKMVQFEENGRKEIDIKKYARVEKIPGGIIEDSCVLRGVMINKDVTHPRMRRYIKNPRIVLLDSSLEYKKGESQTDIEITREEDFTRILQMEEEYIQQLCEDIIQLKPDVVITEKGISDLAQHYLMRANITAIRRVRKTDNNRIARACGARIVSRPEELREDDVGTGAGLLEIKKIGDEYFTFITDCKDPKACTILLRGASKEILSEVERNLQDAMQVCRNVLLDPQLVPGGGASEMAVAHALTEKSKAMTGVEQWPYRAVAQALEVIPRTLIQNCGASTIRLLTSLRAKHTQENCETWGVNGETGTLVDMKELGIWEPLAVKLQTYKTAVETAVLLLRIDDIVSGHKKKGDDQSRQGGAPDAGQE
UniProt Q96BQ5: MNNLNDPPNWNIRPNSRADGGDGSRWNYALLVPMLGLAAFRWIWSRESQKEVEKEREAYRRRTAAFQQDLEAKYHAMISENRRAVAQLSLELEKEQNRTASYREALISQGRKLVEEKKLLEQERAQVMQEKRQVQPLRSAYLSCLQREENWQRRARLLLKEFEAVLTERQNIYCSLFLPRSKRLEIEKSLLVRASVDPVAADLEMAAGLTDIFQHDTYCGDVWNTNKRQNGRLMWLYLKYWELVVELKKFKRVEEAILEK
UniProt Q08722, whole entry, looked up: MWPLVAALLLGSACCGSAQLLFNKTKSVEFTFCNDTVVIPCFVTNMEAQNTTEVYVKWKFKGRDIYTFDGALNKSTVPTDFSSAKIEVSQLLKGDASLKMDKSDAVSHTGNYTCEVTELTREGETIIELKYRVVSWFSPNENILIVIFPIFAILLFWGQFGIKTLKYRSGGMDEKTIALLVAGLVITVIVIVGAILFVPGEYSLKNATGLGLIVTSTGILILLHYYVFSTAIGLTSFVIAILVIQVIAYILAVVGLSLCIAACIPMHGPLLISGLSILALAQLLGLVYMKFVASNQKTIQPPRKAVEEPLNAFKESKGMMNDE
UniProt O75081: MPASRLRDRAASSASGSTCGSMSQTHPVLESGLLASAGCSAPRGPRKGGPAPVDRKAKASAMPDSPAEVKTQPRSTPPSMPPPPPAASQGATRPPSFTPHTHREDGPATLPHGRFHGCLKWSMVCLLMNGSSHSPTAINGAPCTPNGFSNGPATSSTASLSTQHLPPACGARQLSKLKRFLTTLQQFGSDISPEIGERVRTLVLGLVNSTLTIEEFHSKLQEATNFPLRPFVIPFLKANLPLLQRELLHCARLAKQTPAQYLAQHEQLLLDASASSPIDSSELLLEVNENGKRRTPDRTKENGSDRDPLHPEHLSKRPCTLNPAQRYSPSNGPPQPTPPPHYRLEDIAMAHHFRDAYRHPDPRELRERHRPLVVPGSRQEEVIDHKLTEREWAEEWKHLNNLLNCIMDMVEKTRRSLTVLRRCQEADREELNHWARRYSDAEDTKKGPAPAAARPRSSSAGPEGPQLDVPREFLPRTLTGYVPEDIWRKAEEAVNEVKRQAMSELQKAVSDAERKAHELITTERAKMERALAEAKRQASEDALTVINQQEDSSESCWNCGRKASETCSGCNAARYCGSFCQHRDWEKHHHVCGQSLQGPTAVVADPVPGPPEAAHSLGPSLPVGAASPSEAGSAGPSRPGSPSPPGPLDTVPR
UniProt Q8IWD4: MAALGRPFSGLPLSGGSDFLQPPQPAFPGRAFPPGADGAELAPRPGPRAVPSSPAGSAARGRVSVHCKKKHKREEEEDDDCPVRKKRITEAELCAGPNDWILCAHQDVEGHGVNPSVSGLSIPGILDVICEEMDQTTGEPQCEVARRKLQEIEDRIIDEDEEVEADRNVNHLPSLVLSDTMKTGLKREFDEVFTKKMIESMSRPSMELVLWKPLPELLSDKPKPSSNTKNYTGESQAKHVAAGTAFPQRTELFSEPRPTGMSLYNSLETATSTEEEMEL
UniProt Q9BV29: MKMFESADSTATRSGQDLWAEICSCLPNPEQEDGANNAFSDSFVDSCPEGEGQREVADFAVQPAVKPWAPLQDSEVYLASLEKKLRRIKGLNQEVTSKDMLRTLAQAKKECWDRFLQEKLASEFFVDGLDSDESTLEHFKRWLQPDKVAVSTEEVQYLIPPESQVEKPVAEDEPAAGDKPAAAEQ
UniProt Q86X55: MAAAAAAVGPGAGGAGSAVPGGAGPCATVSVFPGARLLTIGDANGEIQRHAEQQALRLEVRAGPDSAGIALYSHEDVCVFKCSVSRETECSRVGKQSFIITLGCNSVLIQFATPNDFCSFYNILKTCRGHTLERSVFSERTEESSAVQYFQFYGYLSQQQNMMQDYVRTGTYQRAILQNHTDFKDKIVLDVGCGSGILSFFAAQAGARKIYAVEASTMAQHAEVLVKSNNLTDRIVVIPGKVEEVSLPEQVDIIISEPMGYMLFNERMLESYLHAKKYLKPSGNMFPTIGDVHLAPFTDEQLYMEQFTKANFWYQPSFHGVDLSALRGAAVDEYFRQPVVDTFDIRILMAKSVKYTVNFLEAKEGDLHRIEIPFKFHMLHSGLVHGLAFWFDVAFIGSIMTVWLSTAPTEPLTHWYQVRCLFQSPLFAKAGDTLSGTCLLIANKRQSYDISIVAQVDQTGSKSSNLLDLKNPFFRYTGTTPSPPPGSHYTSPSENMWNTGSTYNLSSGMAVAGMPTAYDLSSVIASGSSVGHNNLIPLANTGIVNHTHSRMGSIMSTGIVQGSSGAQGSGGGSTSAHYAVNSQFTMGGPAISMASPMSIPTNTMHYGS
UniProt Q9Y5K6, whole entry, looked up: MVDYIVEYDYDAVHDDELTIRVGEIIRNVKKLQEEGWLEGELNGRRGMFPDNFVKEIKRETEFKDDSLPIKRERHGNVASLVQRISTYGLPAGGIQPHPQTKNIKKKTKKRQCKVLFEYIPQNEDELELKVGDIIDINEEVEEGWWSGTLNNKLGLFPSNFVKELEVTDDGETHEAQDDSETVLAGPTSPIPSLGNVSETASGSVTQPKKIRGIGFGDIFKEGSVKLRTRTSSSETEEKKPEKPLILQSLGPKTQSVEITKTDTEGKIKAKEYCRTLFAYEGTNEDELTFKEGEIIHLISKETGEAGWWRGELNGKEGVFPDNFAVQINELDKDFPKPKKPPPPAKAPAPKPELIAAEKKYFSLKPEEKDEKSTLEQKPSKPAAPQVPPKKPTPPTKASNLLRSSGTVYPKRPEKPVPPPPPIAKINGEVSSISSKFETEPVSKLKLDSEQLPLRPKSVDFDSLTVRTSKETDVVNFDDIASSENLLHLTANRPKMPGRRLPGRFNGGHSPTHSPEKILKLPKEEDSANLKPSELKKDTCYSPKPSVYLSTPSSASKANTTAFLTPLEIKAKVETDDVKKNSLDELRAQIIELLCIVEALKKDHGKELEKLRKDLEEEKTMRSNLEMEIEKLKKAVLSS
UniProt Q7Z6B0: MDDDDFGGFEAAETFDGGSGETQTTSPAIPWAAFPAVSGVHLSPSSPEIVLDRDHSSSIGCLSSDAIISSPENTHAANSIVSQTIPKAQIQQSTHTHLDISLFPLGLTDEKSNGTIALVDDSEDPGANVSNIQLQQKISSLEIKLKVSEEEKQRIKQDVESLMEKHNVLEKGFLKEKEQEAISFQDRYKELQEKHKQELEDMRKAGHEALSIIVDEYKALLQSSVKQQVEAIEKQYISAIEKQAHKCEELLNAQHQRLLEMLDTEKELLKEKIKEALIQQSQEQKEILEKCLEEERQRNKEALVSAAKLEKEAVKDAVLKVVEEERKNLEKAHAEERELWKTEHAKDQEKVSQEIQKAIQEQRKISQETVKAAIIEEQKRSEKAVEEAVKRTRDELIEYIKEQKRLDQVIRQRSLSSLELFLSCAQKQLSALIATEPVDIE
UniProt Q99832: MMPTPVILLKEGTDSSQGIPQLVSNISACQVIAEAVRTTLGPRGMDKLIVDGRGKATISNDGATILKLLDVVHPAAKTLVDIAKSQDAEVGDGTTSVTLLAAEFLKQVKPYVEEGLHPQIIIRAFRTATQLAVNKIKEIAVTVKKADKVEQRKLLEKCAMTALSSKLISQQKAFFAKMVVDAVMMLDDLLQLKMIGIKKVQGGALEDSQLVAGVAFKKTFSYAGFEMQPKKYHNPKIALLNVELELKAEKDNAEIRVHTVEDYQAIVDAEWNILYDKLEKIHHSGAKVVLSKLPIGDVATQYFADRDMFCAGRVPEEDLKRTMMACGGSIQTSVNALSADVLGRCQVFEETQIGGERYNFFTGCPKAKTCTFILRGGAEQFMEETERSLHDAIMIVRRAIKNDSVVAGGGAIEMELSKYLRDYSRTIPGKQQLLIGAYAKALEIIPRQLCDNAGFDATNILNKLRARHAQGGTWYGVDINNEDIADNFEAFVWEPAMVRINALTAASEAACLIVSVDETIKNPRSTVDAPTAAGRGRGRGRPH
UniProt P60953, whole entry, looked up: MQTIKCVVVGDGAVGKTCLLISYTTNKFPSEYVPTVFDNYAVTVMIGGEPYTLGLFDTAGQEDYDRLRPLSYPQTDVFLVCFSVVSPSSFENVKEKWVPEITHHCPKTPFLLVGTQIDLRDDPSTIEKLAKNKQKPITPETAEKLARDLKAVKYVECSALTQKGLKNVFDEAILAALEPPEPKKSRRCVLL
UniProt Q16204: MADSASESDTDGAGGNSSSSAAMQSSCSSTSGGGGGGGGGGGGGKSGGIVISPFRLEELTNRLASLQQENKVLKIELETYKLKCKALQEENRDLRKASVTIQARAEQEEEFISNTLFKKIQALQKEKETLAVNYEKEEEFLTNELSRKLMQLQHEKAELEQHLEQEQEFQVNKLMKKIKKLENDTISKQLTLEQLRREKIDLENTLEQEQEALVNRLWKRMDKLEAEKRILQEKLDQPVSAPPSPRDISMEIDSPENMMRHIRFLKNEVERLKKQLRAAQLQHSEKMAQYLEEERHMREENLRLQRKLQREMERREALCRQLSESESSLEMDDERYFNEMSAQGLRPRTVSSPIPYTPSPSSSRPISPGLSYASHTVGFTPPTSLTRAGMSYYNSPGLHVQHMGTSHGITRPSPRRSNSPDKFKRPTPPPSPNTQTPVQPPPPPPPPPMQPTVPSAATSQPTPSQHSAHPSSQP
UniProt Q86WR0: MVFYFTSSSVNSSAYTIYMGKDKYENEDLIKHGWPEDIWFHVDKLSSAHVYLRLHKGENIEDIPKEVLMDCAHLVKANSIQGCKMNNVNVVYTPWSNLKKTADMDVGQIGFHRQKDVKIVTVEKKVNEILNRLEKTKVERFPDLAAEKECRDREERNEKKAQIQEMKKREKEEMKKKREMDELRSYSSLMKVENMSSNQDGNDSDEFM

Tests used:
Experiment in all cases: log2 fold change, soluble protein after heating vs DMSO (PISA); higher = thermal stabilisation; K562 cells, 10 uM, 30 min; active = over 0.2 and 3.5 SD of the protein, either way, in both replicates (recomputed)
[1] = compound: CC[C@@H]1C(=O)N(C)c2cnc(Nc3ccc(C(=O)NC4CCN(C)CC4)cc3OC)nc2N1C1CCCC1
Outline: (§1)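 Quantification of soluble protein used TMTpro 16plex LC-MS/MS, with channel sums equalised. Samples were the supernatant after 21,000xg for 90 min of pooled aliquots from K562 cells (2×10^6 cells/mL) treated with 10 μM compound for 30 min, heated for 3 min over 48°C-58°C, and extracted in PBS with 0.5% NP-40 at 4°C. Values, from duplicates, describe thermal stability against control samples on a log2 fold-change scale.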

[2] = compound: CC[C@@H]1C(=O)N(C)c2cnc(Nc3ccc(C(=O)N[C@H]4CC[C@H](N5CCN(CC6CC6)CC5)CC4)cc3OC)nc2N1C(C)C [volasertib]
Outline: as §1

[3] = compound: CC[C@H](C)N1C=C(C2=C(C=C(C=C21)C3=CN=C(C=C3)N4CCNCC4)C(=O)NCC5=C(C=C(NC5=O)C)C)C
Outline: as §1

[4] = compound: CC[C@H](C)[C@@H](C(=O)N[C@@H]([C@@H](C)O)C(=O)N[C@@H](CC(C)C)C(=O)[C@]1(CO1)C)NC(=O)[C@H]([C@@H](C)CC)N(C)C(=O)C [epoxomicin]
Outline: as §1

[5] = compound: CCn1c(C(=O)N(C2CC2)C2CC2)cc2c3c(ncn3C)c(Nc3cc(C)n(C)n3)nc21
Outline: as §1

[6] = compound: CCn1cc(-c2ccnc3[nH]c(-c4cccc(CN(C)C)c4)cc23)c(-c2ccc(NC(=O)N(C)C)cc2)n1
Outline: as §1

[7] = compound: CN(C)CC(=O)Nc1ccc2[nH]c(=O)c3ccccc3c2c1
Outline: as §1

[8] = compound: CN(CCOC1=CC=C(C=C1)C[C@H]2C(=O)NC(=O)S2)C3=CC=CC=N3 (racemic) [rosiglitazone]
Outline: as §1

[9] = compound: CN1C2=C(C3=C1C(=O)N(N=C3)CC4=CC(=CC=C4)N)SC(=C2)S(=O)C
Outline: as §1

[10] = compound: CN1CCC(CNc2ccc3ncc(-c4cccc(OC(F)(F)F)c4)n3n2)CC1
Outline: as §1

[11] = compound: CN1CCN(CCOc2cc(OC3CCOCC3)c3c(Nc4c(Cl)ccc5c4OCO5)ncnc3c2)CC1 [saracatinib]
Outline: as §1

[12] = compound: CN1CCN(c2nc(C3=C(c4c[nH]c5ccccc45)C(=O)NC3=O)c3ccccc3n2)CC1 [sotrastaurin]
Outline: as §1

[13] = compound: CN1CC[C@H](c2c(O)cc(O)c3c(=O)cc(-c4ccccc4Cl)oc23)[C@H](O)C1 [alvocidib]
Outline: as §1

[14] = compound: CN1CCc2c(c3ccccc3n2Cc2ccc(C(=O)NO)cc2)C1 [Tubastatin A]
Outline: as §1

[15] = compound: CNC(=O)C1=CC=CC=C1NC2=NC(=NC=C2Cl)NC3=C(C=C(C=C3)N4CCOCC4)OC
Outline: as §1

[16] = compound: CNC(=O)c1ccc(Nc2ncc(C(F)(F)F)c(NCc3nccnc3N(C)S(C)(=O)=O)n2)cc1 [defactinib]
Outline: as §1

[17] = compound: CNCc1ccc(-c2[nH]c3cc(F)cc4c3c2CCNC4=O)cc1 [rucaparib]
Outline: as §1

[18] = compound: CNc1nc(-c2ccc3c(N)n[nH]c3c2)cc(N2C[C@@H](C(=O)NC3CCCCC3)CC[C@H]2C)n1
Outline: as §1

[19] = compound: COC(=O)N[C@@H](C)CNc1nccc(-c2cn(C(C)C)nc2-c2cc(Cl)cc(NS(C)(=O)=O)c2F)n1 [encorafenib]
Outline: as §1

[20] = compound: COC(=O)[C@H](CCSC)NC(=O)C1=C(C=C(C=C1)NC[C@H](CS)N)C2=CC=CC=C2
Outline: as §1

Measured: log2 fold change

CCDC43 (UniProt Q96MW1)
inactive: [1] -0.034 | [2] -0.008 | [3] -0.03 | [4] -0.004 | [5] -0.041 | [6] 0.073 | [7] -0.001 | [8] 0.009 | [9] -0.094 | [10] 0.066 | [11] 0.081 | [12] 0.008 | [13] -0.108 | [14] 0.01 | [15] -0.043 | [16] -0.047 | [17] -0.118 | [18] -0.049 | [19] 0.039 | [20] 0.025

CASP6 (UniProt P55212)
inactive: [1] 0.011 | [2] 0.065 | [3] -0.024 | [4] 0.044 | [5] 0.031 | [6] 0.011 | [7] 0.011 | [8] -0.087 | [9] -0.083 | [10] -0.012 | [11] 0.009 | [12] -0.009 | [13] -0.02 | [14] -0.047 | [15] -0.056 | [16] 0.001 | [17] -0.033 | [18] -0.009 | [19] -0.029 | [20] 0.004

CCT3 (UniProt P49368)
inactive: [1] -0.007 | [2] 0.011 | [3] -0.005 | [4] -0.092 | [5] -0.011 | [6] 0.027 | [7] -0.003 | [8] 0.002 | [9] -0.03 | [10] -0.066 | [11] 0.015 | [12] 0.052 | [13] 0.001 | [14] -0.024 | [15] -0.025 | [16] 0.003 | [17] 0.02 | [18] -0.018 | [19] -0.005 | [20] 0.023

CCDC127 (UniProt Q96BQ5)
inactive: [1] 0.026 | [2] 0.071 | [3] 0.026 | [4] 0.074 | [5] -0.004 | [6] 0.112 | [7] -0.022 | [8] -0.08 | [9] -0.019 | [10] 0.147 | [11] -0.016 | [12] 0.144 | [13] 0.049 | [14] 0.023 | [15] 0.032 | [16] -0.016 | [17] -0.022 | [18] -0.065 | [19] -0.056 | [20] 0.028

CD47 (UniProt Q08722)
inactive: [1] 0.114 | [2] 0.036 | [3] -0.104 | [4] -0.019 | [5] 0.015 | [6] -0.006 | [7] -0.019 | [8] -0.034 | [9] -0.054 | [10] 0.221 | [11] -0.023 | [12] 0.033 | [13] 0.04 | [14] -0.045 | [15] -0.062 | [16] -0.013 | [17] -0.079 | [18] 0.016 | [19] 0.027 | [20] 0.007

CBFA2T3 (UniProt O75081)
inactive: [1] 0.011 | [2] -0.017 | [3] 0.031 | [4] -0.172 | [5] 0.015 | [6] -0.048 | [7] 0.003 | [8] 0.095 | [9] 0.052 | [10] 0.178 | [11] -0.023 | [12] 0.129 | [13] -0.081 | [14] 0.14 | [15] -0.035 | [16] 0.061 | [17] -0.035 | [18] -0.047 | [19] 0.035 | [20] 0.001

CCDC117 (UniProt Q8IWD4)
inactive: [1] 0.001 | [2] 0.068 | [3] -0.17 | [4] 0.028 | [5] 0.115 | [6] -0.053 | [7] -0.002 | [8] 0.043 | [9] 0.026 | [10] -0.194 | [11] 0 | [12] 0.041 | [13] -0.04 | [14] 0.035 | [15] -0.077 | [16] -0.112 | [17] 0.001 | [18] -0.01 | [19] 0.015 | [20] 0.085

CCDC32 isoform 2 (UniProt Q9BV29)
inactive: [1] 0.059 | [2] 0.048 | [3] 0.088 | [4] 0.072 | [5] 0.051 | [6] 0.012 | [7] -0.011 | [8] 0 | [9] 0.039 | [10] 0.056 | [11] -0.031 | [12] -0.008 | [13] -0.013 | [14] 0.086 | [15] -0.069 | [16] 0.025 | [17] -0.012 | [18] -0.086 | [19] -0.009 | [20] 0.066

CARM1 (UniProt Q86X55)
inactive: [1] 0.028 | [2] 0.041 | [3] -0.032 | [4] 0.01 | [5] -0.024 | [6] 0.013 | [7] -0.002 | [8] 0.01 | [9] -0.073 | [10] -0.029 | [11] 0.039 | [12] 0.041 | [13] -0.012 | [14] -0.027 | [15] -0.014 | [16] 0.003 | [17] -0.047 | [18] -0.041 | [19] 0.008 | [20] -0.01

CD2AP (UniProt Q9Y5K6)
inactive: [1] -0.047 | [2] -0.108 | [3] 0.023 | [4] 0.038 | [5] -0.019 | [6] -0.027 | [7] -0.001 | [8] 0.014 | [9] -0.043 | [10] -0.17 | [11] -0.004 | [12] 0.017 | [13] -0.034 | [14] -0.02 | [15] 0.011 | [16] -0.031 | [17] -0.001 | [18] 0 | [19] 0.009 | [20] 0.027

CCDC91 (UniProt Q7Z6B0)
inactive: [1] 0.081 | [2] 0.019 | [3] 0.031 | [4] 0.034 | [5] -0.031 | [6] -0.044 | [7] -0.034 | [8] 0 | [9] -0.038 | [10] 0.003 | [11] 0.017 | [12] 0.026 | [13] -0.02 | [14] -0.018 | [15] 0.012 | [16] 0.027 | [17] -0.047 | [18] -0.026 | [19] -0.036 | [20] -0.001

CCT7 (UniProt Q99832)
inactive: [1] -0.02 | [2] 0.035 | [3] 0 | [4] 0.053 | [5] -0.015 | [6] 0.032 | [7] -0.012 | [8] -0.014 | [9] -0.032 | [10] -0.005 | [11] 0.059 | [12] -0.015 | [13] 0.004 | [14] -0.025 | [15] -0.006 | [16] 0.006 | [17] -0.038 | [18] 0.005 | [19] 0.02 | [20] 0.003

Fetched one by one from the entries so far, two records:
CCDC91 (UniProt Q7Z6B0)
inactive: [1] 0.081 | [2] 0.019 | [3] 0.031 | [4] 0.034 | [5] -0.031 | [6] -0.044 | [7] -0.034 | [8] 0 | [9] -0.038 | [10] 0.003 | [11] 0.017 | [12] 0.026 | [13] -0.02 | [14] -0.018 | [15] 0.012 | [16] 0.027 | [17] -0.047 | [18] -0.026 | [19] -0.036 | [20] -0.001

CARM1 (UniProt Q86X55)
inactive: [1] 0.028 | [2] 0.041 | [3] -0.032 | [4] 0.01 | [5] -0.024 | [6] 0.013 | [7] -0.002 | [8] 0.01 | [9] -0.073 | [10] -0.029 | [11] 0.039 | [12] 0.041 | [13] -0.012 | [14] -0.027 | [15] -0.014 | [16] 0.003 | [17] -0.047 | [18] -0.041 | [19] 0.008 | [20] -0.01

Next records follow.

CDC42 isoform 1 (UniProt P60953)
inactive: [1] 0.062 | [2] 0.076 | [3] -0.064 | [4] 0.01 | [5] 0.012 | [6] 0.024 | [7] -0.034 | [8] 0.023 | [9] -0.013 | [10] 0.024 | [11] 0.031 | [12] 0.041 | [13] 0.05 | [14] 0.003 | [15] -0.016 | [16] -0.006 | [17] -0.154 | [18] -0.015 | [19] 0.024 | [20] 0.105

CCDC6 (UniProt Q16204)
inactive: [1] 0.022 | [2] -0.019 | [3] 0.006 | [4] -0.004 | [5] 0.01 | [6] -0.01 | [7] -0.007 | [8] 0.015 | [9] -0.074 | [10] -0.009 | [11] -0.009 | [12] 0.015 | [13] -0.016 | [14] 0.017 | [15] -0.021 | [16] -0.041 | [17] -0.061 | [18] -0.022 | [19] -0.031 | [20] 0.007

CCDC25 (UniProt Q86WR0)
inactive: [1] 0.03 | [2] -0.022 | [3] 0.085 | [4] 0.023 | [5] -0.072 | [6] -0.057 | [7] 0.013 | [8] 0.058 | [9] -0.022 | [10] -0.077 | [11] -0.02 | [12] -0.069 | [13] -0.118 | [14] 0.036 | [15] -0.031 | [16] -0.076 | [17] 0.049 | [18] 0.101 | [19] 0.01 | [20] -0.027
